Measured data: PubChem BioAssay AID504793 (Drosophila RNAi Screening Center, 2011)
Aim: 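Whole-genome screen for parts of the DNA damage checkpoint at G2/M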 (primary screen). System: Drosophila S2R+ cells. Reagent: long dsRNA against Drosophila genes, about 0.25 µg dsRNA per well. Duration: 4 days of dsRNA, then 4 hours of drug before read-out. Challenge: doxorubicin 0.5 µM for 4 hours to cause double-strand breaks, in cells also given a low, harmless dose of dsRNA against nbs to sensitise the assay. Detection: 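Per-well count of mitotic cells stained for phospho-histone H3 after doxorubicin exposure, used as mitotic index; counts are raw and not normalised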. Reading the numbers: mitotic cells: higher = more cells in mitosis, weaker G2 arrest. Hit rule: 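Genes are called active only when high mitotic counts were reproduced with independent dsRNAs and mitosis was checked for delay without damage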. Meaning of the calls: active = confirmed in follow-up tests; inactive = not confirmed.
The screen tested about 23,000 reagents; below is an unselected part of those that have a named target and a result. In the full data, 62 (0.27%) are marked active. 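Calls come from follow-up tests whose scores are not deposited, so confirmed genes may have low counts here; counts are not normalised per plate.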 Raw values are not corrected between plates. A plus sign joins genes that one reagent is predicted to hit.

| gene knocked down | DRSC id | mitotic cells, replicate 1 | mitotic cells, replicate 2 | activity call |
| --- | --- | --- | --- | --- |
| santa-maria | DRSC00994 | 4 | – | inactive |
| santa-maria | DRSC02180 | 6 | – | inactive |
| Jon99Fii + Jon99Cii + Jon99Ciii + 1 more | DRSC15298 | 13 | – | inactive |
| CG1575 | DRSC18069 | 6 | – | inactive |
| CG1575 | DRSC27030 | 2 | – | inactive |
| CG13039 | DRSC09920 | – | – | inactive |
| CG6435 | DRSC06987 | 7 | – | inactive |
| trus | DRSC15772 | 3 | – | inactive |
| trus | DRSC25521 | 1 | – | inactive |
| CG6701 | DRSC07007 | 2 | – | inactive |
| Tasp1 | DRSC10495 | 6 | – | inactive |
| Gpdh1 | DRSC03336 | 10 | – | inactive |
| Gpdh1 | DRSC21666 | 10 | – | inactive |
| be | DRSC19607 | 7 | – | inactive |
| be | DRSC19944 | 11 | – | inactive |
| be | DRSC19945 | 11 | – | inactive |
| tej | DRSC07219 | 10 | – | inactive |
| tej | DRSC24278 | 6 | – | inactive |
| cass | DRSC01850 | 6 | – | inactive |
| cass | DRSC29928 | 11 | – | inactive |
| mle | DRSC04921 | 6 | – | inactive |
| h-cup + Rbp | DRSC14990 | 5 | – | inactive |
| CG4575 (retired record) | DRSC18372 | 11 | – | inactive |
| Pif2 | DRSC12525 | 5 | – | inactive |
| Pif2 | DRSC26251 | 8 | – | inactive |
| Obp99c | DRSC16262 | 18 | – | inactive |
| Krn | DRSC11202 | 4 | – | inactive |
| CG15083 | DRSC06514 | 11 | – | inactive |
| gammaTub23C | DRSC00820 | 24 | – | inactive |
| gammaTub23C | DRSC27651 | 5 | – | inactive |
| hpo | DRSC06065 | 6 | – | inactive |
| CG3281 | DRSC15470 | 14 | – | inactive |
| CG3281 | DRSC28414 | 7 | – | inactive |
| Drp1 | DRSC00574 | 11 | – | inactive |
| Drp1 | DRSC26413 | 2 | – | inactive |
| Ugt305A1 | DRSC08541 | 5 | – | inactive |
| Ugt305A1 | DRSC26426 | 4 | – | inactive |
| CG7227 | DRSC03032 | 4 | – | inactive |
| CG11458 | DRSC23399 | 11 | – | inactive |
| Cyp12c1 | DRSC11125 | 8 | – | inactive |
| Cyp12c1 | DRSC24262 | 6 | – | inactive |
| Apc | DRSC14114 | 11 | – | inactive |
| CG13954 | DRSC06442 | 4 | – | inactive |
| CG13954 | DRSC27499 | 6 | – | inactive |
| PGRP-LD + Pmi | DRSC10512 | 4 | – | inactive |
| PGRP-LD + Pmi | DRSC10513 | 10 | – | inactive |
| CG31288 | DRSC14667 | 13 | – | inactive |
| CG31288 | DRSC27373 | 5 | – | inactive |
| Lfg | DRSC06853 | 7 | – | inactive |
| CG40198 | DRSC21068 | 16 | 9 | inactive |
| Enoph | DRSC12201 | 11 | – | inactive |
| egl | DRSC23380 | 7 | – | inactive |
| CG11109 | DRSC11633 | 11 | – | inactive |
| tomboy40 | DRSC04918 | 7 | – | inactive |
| tomboy40 | DRSC28442 | 13 | – | inactive |
| tow | DRSC23125 | 13 | – | inactive |
| tow | DRSC26759 | 5 | – | inactive |
| CG13202 | DRSC06326 | 6 | – | inactive |
| CG6834 | DRSC16125 | 5 | – | inactive |
| CG6834 | DRSC29321 | 10 | – | inactive |
| Pig1 | DRSC24991 | 7 | – | inactive |
| CG6738 | DRSC16104 | 11 | – | inactive |
| CG6738 | DRSC27802 | 1 | – | inactive |
| CG8132 | DRSC16383 | 7 | – | inactive |
| tamo | DRSC04446 | 6 | – | inactive |
| tamo | DRSC24895 | 5 | – | inactive |
| CG15373 | DRSC19663 | 7 | – | inactive |
| Nbr | DRSC03166 | 5 | – | inactive |
| AIF | DRSC00696 | 9 | – | inactive |
| CG15535 | DRSC15071 | 16 | – | inactive |
| CG6933 | DRSC10751 | 7 | – | inactive |
| mGluR | DRSC17215 | 12 | – | inactive |
| CG34457 | DRSC06924 | 6 | – | inactive |
| CG42566 | DRSC03949 | 6 | – | inactive |
| FASN1 | DRSC00268 | 11 | – | inactive |
| FASN1 | DRSC26498 | 9 | – | inactive |
| CG13813 | DRSC10068 | 8 | – | inactive |
| CG11029 | DRSC02119 | 4 | – | inactive |
| Rbp1 | DRSC16817 | 8 | – | inactive |
| GstO3 | DRSC10710 | 5 | – | inactive |
| Naam | DRSC16252 | 5 | – | inactive |
| Pex7 | DRSC10651 | 3 | – | inactive |
| RpS3 | DRSC16838 | 10 | – | inactive |
| lolal | DRSC06948 | 6 | – | inactive |
| Upf3 | DRSC04092 | 8 | – | inactive |
| Upf3 | DRSC27316 | 6 | – | inactive |
| CG3635 | DRSC03729 | 5 | – | inactive |
| MAN1 | DRSC04342 | 6 | – | inactive |
| Pgant1 | DRSC07095 | 4 | – | inactive |
| TAF1C-like | DRSC04073 | 4 | – | inactive |
| Cyp4ac2 | DRSC03303 | 4 | – | inactive |
| CG33155 + mRpL53 | DRSC05461 | 6 | – | inactive |
| CG33155 + mRpL53 | DRSC29467 | 6 | – | inactive |
| CG10286 | DRSC12520 | 4 | – | inactive |
| CG9631 | DRSC14137 | 4 | – | inactive |
| wash | DRSC06302 | 2 | – | inactive |
| CG15739 | DRSC19705 | 15 | – | inactive |
| CG15739 | DRSC28638 | 7 | – | inactive |
| CG15029 (retired record) | DRSC19610 | 16 | – | inactive |
| CG15029 (retired record) | DRSC27659 | 13 | – | inactive |
| PH4alphaMP | DRSC17031 | 6 | – | inactive |
| Kul | DRSC15404 | 9 | – | inactive |
| Kul | DRSC25888 | 6 | – | inactive |
| Gr98c | DRSC22212 | 7 | – | inactive |
| Gr98c | DRSC26546 | 7 | – | inactive |
| CG33251 (retired record) + CG9915 | DRSC20217 | 4 | – | inactive |
| SKIP | DRSC14713 | 6 | – | inactive |
| SKIP | DRSC14714 | 7 | – | inactive |
| SKIP | DRSC15864 | 13 | – | inactive |
| SKIP | DRSC16195 | 11 | 13 | inactive |
| SKIP | DRSC16196 | 10 | – | inactive |
